In doi:10.1101/2021.05.24.445519 (bioRxiv, 2021) one finds binding data, which are given here for one molecule.

Amino acid sequences for entries named in this document (tags omitted). Residues count along the entry.
UniProt P21549, residues 6-391: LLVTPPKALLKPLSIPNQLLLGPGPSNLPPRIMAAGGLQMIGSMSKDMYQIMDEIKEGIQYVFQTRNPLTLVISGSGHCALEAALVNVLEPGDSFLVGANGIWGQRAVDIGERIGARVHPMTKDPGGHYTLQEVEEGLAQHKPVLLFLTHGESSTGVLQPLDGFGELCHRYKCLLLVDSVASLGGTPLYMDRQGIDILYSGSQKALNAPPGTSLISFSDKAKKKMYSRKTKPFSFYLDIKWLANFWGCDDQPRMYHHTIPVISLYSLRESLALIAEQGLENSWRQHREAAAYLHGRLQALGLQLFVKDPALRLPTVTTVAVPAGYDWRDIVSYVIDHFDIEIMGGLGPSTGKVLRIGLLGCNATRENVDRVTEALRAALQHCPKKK

These are yes or no findings as the source states them, for the method shown. Binding seen in cells or lysates may run through a third protein. Here binding means that the protein was enriched with, or labelled near, the bait; the list need not be complete.

The experiment concerns the target alanine:glyoxylate aminotransferase 1, major allele (AGT-Ma), expressed in HEK293 cells (human) (UniProt P21549). As to the kind of experiment: affinity purification with mass spectrometry.

B1: FBXO21, a E3 ubiquitin ligase (protein, UniProt O94952 1-628)
chain: MAAAAVDSAMEVVPALAEEAAPEVAGLSCLVNLPGEVLEYILCCGSLTAADIGRVSSTCRRLRELCQSSGKVWKEQFRVRWPSLMKHYSPTDYVNWLEEYKVRQKAGLEARKIVASFSKRFFSEHVPCNGFSDIENLEGPEIFFEDELVCILNMEGRKALTWKYYAKKILYYLRQQKILNNLKAFLQQPDDYESYLEGAVYIDQYCNPLSDISLKDIQAQIDSIVELVCKTLRGINSRHPSLAFKAGESSMIMEIELQSQVLDAMNYVLYDQLKFKGNRMDYYNALNLYMHQVLIRRTGIPISMSLLYLTIARQLGVPLEPVNFPSHFLLRWCQGAEGATLDIFDYIYIDAFGKGKQLTVKECEYLIGQHVTAALYGVVNVKKVLQRMVGNLLSLGKREGIDQSYQLLRDSLDLYLAMYPDQVQLLLLQARLYFHLGIWPEKSFCLVLKVLDILQHIQTLDPGQHGAVGYLVQHTLEHIERKKEEVGVEVKLRSDEKHRDVCYSIGLIMKHKRYGYNCVIYGWDPTCMMGHEWIRNMNVHSLPHGHHQPFYNVLVEDGSCRYAAQENLEYNVEPQEISHPDVGRYFSEFTGTHYIPNAELEIRYPEDLEFVYETVQNIYSAKKENIDE
On to B1, for which the binding result was “binds”.
